Percent effect of library compounds

Sequences of proteins named here, by UniProt entry; tags and fusion partners are left off.
UniProt P9WFT3, whole entry: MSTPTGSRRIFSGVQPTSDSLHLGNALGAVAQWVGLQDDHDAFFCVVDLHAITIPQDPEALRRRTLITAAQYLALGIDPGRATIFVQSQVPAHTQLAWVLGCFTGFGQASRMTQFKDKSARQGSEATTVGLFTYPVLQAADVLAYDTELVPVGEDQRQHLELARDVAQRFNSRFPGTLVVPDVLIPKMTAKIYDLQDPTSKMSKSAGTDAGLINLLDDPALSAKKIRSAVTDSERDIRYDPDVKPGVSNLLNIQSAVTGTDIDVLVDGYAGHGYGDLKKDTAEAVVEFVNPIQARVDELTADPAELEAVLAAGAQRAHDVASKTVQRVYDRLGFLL

The values are deposited in ChEMBL (CHEMBL3988442, “University of Dundee, Small-Polar-MMV Screening Library” (2021)).

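Tryptophan-tRNA ligase, Mycobacterium tuberculosis (UniProt P9WFT3). Enzyme assay of tryptophanyl-tRNA synthetase; the read-out is not stated. Tested at 10 µM. Direction is not recorded; retested compounds ran higher, which suggests that high means inhibition. Size under these conditions: about 65,000 compounds, about 64 of them at 50% or above in at least one test.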

Values are the deposited “Percent Effect”, in %. How 0% and 100% were set is not recorded. Most values in the screen are low, and negative values occur. The compounds are a random part of those screened.

| Compound | effect |
|---|---|
| `COc1ccc(CC(=O)N2CCN(Cc3ccco3)C[C@@H]2C)cc1` | -5.208% |
| `Cc1nc(CN2CCCC(CCc3ccccc3F)C2)c[nH]1` (centres undefined) | -0.972% |
| `Fc1ccc(CN2CC[C@H]3O[C@@H](COCC4CCOCC4)CC[C@H]32)cc1` | -1.41% |
| `CO[C@@H]1CN(S(=O)(=O)c2cn(C)cn2)[C@@H]2CCCO[C@@H]21` | -6% |
| `CCN(C)C(C(=O)Nc1ccc2c(c1)CCC(=O)N2)c1ccccc1` (centres undefined) | -4.237% |
| `O=C1N(CC2CC2)CCC12CCN(CC1CC1)CC2` | -1.057% |
| `O=C(CN1CCCC1Cn1cccn1)NCCOc1cccc(F)c1` (centres undefined) | -4.475% |
| `CN(c1ccc2ccccc2c1)S(=O)(=O)c1cc(C(=O)O)cs1` | 2.093% |
| `CC1CCN(C(=O)[C@@H]2C[C@H]3OCC[C@H]3N(Cc3ccoc3)C2)CC1` | 1.728% |
| `Cc1ccsc1C(=O)Nc1ccc(N2CCC(O)CC2)c(C#N)c1` | -2.381% |
| `CS(=O)(=O)NCC1CCCN(C(=O)c2ccc(F)c(F)c2)C1` (centres undefined) | 7.91% |
| `Cc1cc(C)n(CC2CN(CCOc3cccc(F)c3)CCO2)n1` (centres undefined) | -2.242% |
| `CN(C)C(CNS(=O)(=O)c1cnn(C)c1)c1cccc(F)c1` (centres undefined) | 0% |
| `Cc1c(C)n(Cc2ccccn2)c2nc3c(c(N)c12)CCCCC3` | -3.571% |
| `CCOc1cc(NC(=O)NCCn2cnnc2CC)ccc1C` | -4.722% |
| `COCCN(C/C=C/c1ccccc1)Cc1ncc[nH]1` | 5.877% |
| `CSc1ccccc1CN1C[C@H]2CC[C@@H]1CN(Cc1[nH]cnc1C)C2` | -1.592% |
| `CSCC[C@H](NC(=O)Cn1ccc2c(Cl)cccc21)C(=O)O` | 0.603% |
| `COCCNc1ccc(CNCc2cnc3nc(C)cc(C)n23)cc1` | -2.592% |
| `CCOC(=O)c1nc(CN2CCN(C(=O)NC3CCCCC3)CC2)cs1` | 4.095% |
| `COc1ccc(CN(Cc2cncn2C)CC2CCCO2)c(OC)c1` (centres undefined) | 6.104% |
| `NC(=O)c1cccc(CCNCc2cnc(C3CCC3)s2)c1` | -0.6053% |
| `OCCCN1CCCC1c1cccc(Br)c1` (centres undefined) | -1.283% |
| `CCC(NC(=O)CCCN1CCCCC1)c1cn2cccnc2n1` (centres undefined) | -3.971% |
| `Cc1cccc(NC(=O)c2[nH]nc(C(C)C)c2Br)n1` | 8.276% |
| `CN1CCCC(c2ccnc(C(=O)NCC3CC3)c2)C1` (centres undefined) | -2.261% |
| `Cc1ccc(N2CCCc3sc(C(=O)NCc4cccnc4)nc32)nn1` | 3.701% |
| `Cc1cc(NC(=O)CCN(CC2CCOC2)C2CC2)no1` (centres undefined) | -4.476% |
| `CS(=O)(=O)Nc1ccc2c(c1)NC(=O)CC2c1cnn2cccnc12` (centres undefined) | -0.2987% |
| `CCn1c(CN2CCCC2)nnc1C1CCN(Cc2cccnc2)CC1` | -0.3623% |
| `COCCC1(CNC(=O)NCC2CCC2)CCC1` | -1.72% |
| `O=C(c1cccc2ncccc12)N1CCCC(n2ccnc2)C1` (centres undefined) | -5.512% |
| `CS(=O)(=O)N1CCCC1C(=O)Nc1cnc2n1CCCC2` (centres undefined) | 5.948% |
| `O=C(Cn1cnc2ccsc2c1=O)c1ccc2c(c1)OCCO2` | -2.761% |
| `CN(C)S(=O)(=O)c1ccc(CN2CCC(C(N)=O)CC2)o1` | -6.208% |
| `CN1CCCC(c2ccc(N3CCOCC3)cn2)C1` (centres undefined) | -2.263% |
| `CC(C#N)CNS(=O)(=O)c1ccc(Br)c(F)c1` (centres undefined) | -4.063% |
| `CS(=O)(=O)NCc1nnc2n1CCN(Cc1cccnc1)C2` | 8.757% |
| `Cc1cnc(CNC(=O)N(CCCO)C2CCc3ccccc32)s1` (centres undefined) | -5.711% |
| `N#Cc1ccc(OC2CCN(C(=O)c3ccc4c(c3)OCO4)CC2)nc1` | 4.918% |
| `COc1ccc(N(CCC(N)=O)C(=O)CSc2ccc(Cl)cc2)cc1` | 0.8614% |
| `O=C(Cc1ccc2c(c1)CCC2)N1CCCC(n2cccn2)C1` (centres undefined) | -2.848% |
| `CC(NS(C)(=O)=O)c1nc(-c2ccc(Br)cc2)no1` (centres undefined) | -2.58% |
| `CN(C)C(=O)N1CCC2(CC1)CN(Cc1ccccn1)C(=O)CO2` | -1.256% |
| `CO[C@@H]1CC[C@H]2[C@H]1OCCN2CC1CCOCC1` | -3.752% |
| `O=C(CO)N1CCC2(CC1)CC(=O)N(Cc1cc(F)cc(F)c1)C2` | 1.467% |
| `Cc1cc(C)nc(C2CCCNC2)n1` (centres undefined) | 8.197% |
| `Cc1cc(CN(C)C2CCCN(Cc3noc(C4CC4)n3)C2)on1` (centres undefined) | 0.05893% |
| `Cc1cc(N2CCC(O)(CN(C)C(=O)CCCN)C2)c2cnccc2n1` (centres undefined) | -7.291% |
| `O=C(C1CC=CC1)N1CCC2(CCN(Cc3ccccn3)C2=O)C1` (centres undefined) | 4.606% |
| `OC(CNC1CCOCC1)c1cccc(OCc2ccccc2)c1` (centres undefined) | -0.1942% |
| `CCCNC(=O)c1nc2c(o1)CN(C(=O)CN(C)C)C2` | 0.8835% |
| `C[C@@H]1CN(c2ccc(Cl)cn2)C[C@]1(C)O` | 0.6056% |
| `CN(C)c1ncc(CNS(=O)(=O)c2cccc3ccccc23)n1C` | -4.193% |
| `O=C(Cc1ccon1)N1CCN(c2ccncc2Cl)CC1` | -0.000009% |
| `Cc1nc(CN2CCCC(Cn3cc(CCO)nn3)C2)c[nH]1` (centres undefined) | 5.031% |
| `Cc1ccc(Cl)cc1NCc1nc2[nH]c(C)c(C)c(=O)n2n1` | -3.577% |
| `Cc1cnn(-c2ccc(C(=O)N3CCN(C)CC3C)cc2)c1` (centres undefined) | 1.026% |
| `Cc1cccc(CNC(C)c2ccc(OCC(=O)NC3CC3)cc2)c1` (centres undefined) | 1.661% |
| `O=C(CCOc1ccc(Cl)cc1)NCCCn1cccn1` | 0.4542% |
| `CCC(O)CN1CCN(C(=O)c2cccc3[nH]ncc23)CC1` (centres undefined) | -0.3298% |
| `CN(CC(=O)N(C)C1CCN(CC2CCOC2)CC1)c1ccccc1` (centres undefined) | -2.874% |
| `Cc1ncc(CO)c(CN2CCCC2c2nc3c(C)cccc3[nH]2)c1O` (centres undefined) | -0.3749% |
| `CCC(CC)NC(=O)Cn1cc(-c2ccccc2)cn1` | 7.052% |
| `Cc1oc(-c2ccco2)nc1CC(=O)N1CCN(CC(C)O)CC1` (centres undefined) | 1.871% |
| `Cc1oc(-c2cccc(F)c2F)nc1CN(CCO)C(C)C` | 1.089% |
| `CC(O)CN1CCN(C(=O)c2cccn2Cc2cccnc2)CC1` (centres undefined) | -4.179% |
| `O=C(c1ccsc1)N1C[C@H]2CN(Cc3cccc(F)c3)C(=O)[C@H]2C1` | -0.6509% |
| `CCNc1cc2c(nn1)CCN(C(=O)C1COc3ccccc3C1)C2` (centres undefined) | 5.786% |
| `Cc1nc(NC(=O)OC(C)(C)C)sc1C(N)=O` | -6.659% |
| `NCCc1cccc(CN2CCN(c3cccc(Cl)c3)C(=O)C2)c1` | -2.093% |
| `Cc1cnn(CC2CCN(CC(O)COc3ccc(F)cc3)CC2)c1` (centres undefined) | 1.101% |
| `O=C(Nc1ccc(-c2csnn2)cc1)N1CCC(N2CCCC2)C1` (centres undefined) | -1.598% |
| `CCN(Cc1nccn1C)C1CCN(c2ccccc2)C1=O` (centres undefined) | -1.329% |
| `Cc1cc(Nc2ccc(F)cn2)cc(C2CCCN2)n1` (centres undefined) | -6.914% |
| `O=C(C1CCOC1)N1CCC2(CC1)COCCN(Cc1ccncc1)C2` (centres undefined) | -3.867% |
| `Cc1ccnc(C2CN(Cc3ccc(-c4ccccc4C(=O)O)o3)C2)n1` | -4.749% |
| `CC(=O)NCCNc1nccc(CCC(F)(F)F)n1` | -11.28% |
| `O=C1[C@H]2CN(S(=O)(=O)c3cccs3)C[C@H]2CN1CC1CC1` | -5.901% |
| `Cc1nn(C)c(N(C)C)c1CNCc1ccc(OCCN(C)C)cc1` | 7.449% |
| `COC(=O)c1ccc(OCCn2cnc(C#N)n2)cc1` | 1.329% |
| `Cc1cc(=O)[nH]c(-n2nc(C)c(CCC(=O)NCc3ccco3)c2C)n1` | 3.228% |
| `CC(C)c1nc(CN(C)C(=O)c2ccccc2C2CCNC2)cs1` (centres undefined) | -3.314% |
| `Cc1ccc(CC(=O)N2CCN(C(C)c3ccccc3F)CC2)cn1` (centres undefined) | -5.747% |
| `CC1(C)Cc2c(cnn2-c2cccc(F)c2)C(NC2CCSCC2)C1` (centres undefined) | 0.3687% |
| `Cc1cnc(-c2nc(O)c3c(n2)CN(C(=O)C2CCCC2)CC3)cn1` | -5.543% |
| `CCc1noc(C(C)N(C)CC(=O)Nc2ccc(Cl)c(C(F)(F)F)c2)n1` (centres undefined) | 4.242% |
| `Cc1cc(CNC(=O)Cc2c(C)nc3cc(=O)[nH]n3c2C)no1` | 0.936% |
| `Cc1ccnc(C2CCN(CCCOc3ccccc3F)C2)n1` (centres undefined) | -1.632% |
| `CCN1C(=O)C2(CCOCC2)c2cc(NC(=O)COC)ccc21` | -3.133% |
| `CN(C[C@@H]1CCC[C@@H]2CN(c3ncccn3)C[C@@H]21)C1CC1` | -5.093% |
| `CC(C)[C@H]1CN(c2ccnc(N)n2)C[C@@H]1NC(=O)C1(C#N)CCOCC1` | -0.144% |
| `CCCn1ncc(CN2CCCCC2CCCOC)c1C` (centres undefined) | -4.686% |
| `Cc1nc(CNC(=O)CCCc2cccs2)no1` | -5.717% |

Some entries from above, unchanged:

Result for CS(=O)(=O)NCc1nnc2n1CCN(Cc1cccnc1)C2 was 8.757%.
Result for Cc1cnn(CC2CCN(CC(O)COc3ccc(F)cc3)CC2)c1 (centres undefined) was 1.101%.
Result for Cc1cnc(CNC(=O)N(CCCO)C2CCc3ccccc32)s1 (centres undefined) was -5.711%.
Result for O=C(C1CCOC1)N1CCC2(CC1)COCCN(Cc1ccncc1)C2 (centres undefined) was -3.867%.
Result for O=C(Nc1ccc(-c2csnn2)cc1)N1CCC(N2CCCC2)C1 (centres undefined) was -1.598%.
Result for NC(=O)c1cccc(CCNCc2cnc(C3CCC3)s2)c1 was -0.6053%.